Reference: paper PMC8187357 (Communications Biology, 2021)
Where “and” joins values, the source holds several entries; their conditions need not be identical. Equal values may be shown once.

Key:
parental CHO-K1 cells = assay: Cellular NMR (T2), parental CHO-K1 cells; type: binding; conditions: trials
[1] = general procedure: peptide synthesis; CTC resin; HATU/DIPEA (head-to-tail cyclisation); conditions: whole synthesis

Compound | T2 (parental CHO-K1 cells; CA-170 5.0 µM) | T2 (parental CHO-K1 cells; CA-170 7.5 µM) [mS] | T2 (parental CHO-K1 cells; CA-170 10.0 µM) [mS] | T2 (parental CHO-K1 cells; CA-170 20.0 µM) | T2 (parental CHO-K1 cells; CA-170 40.0 µM) | final HPLC purity [1] [%]
C[C@@H](O)[C@H](NC(=O)N[C@@H](CC(N)=O)c1nc([C@@H](N)CO)no1)C(=O)O [CA-170] | 70.18 mS and 63.50 mS | 70.48 | 69.86 | 65.57 mS and 57.14 mS | 72.39 mS and 60.00 mS and 66.66 mS | 
HELM PEPTIDE1{E.S.F.S.N.T.S}$PEPTIDE1,PEPTIDE1,1:R1-7:R2$$$V2.0 (SMILES C[C@@H](O)[C@@H]1NC(=O)[C@H](CC(N)=O)NC(=O)[C@H](CO)NC(=O)[C@H](Cc2ccccc2)NC(=O)[C@H](CO)NC(=O)[C@H](CCC(=O)O)NC(=O)[C@H](CO)NC1=O) |  |  |  |  |  | 97
